Here are results for one molecule from publication PMC13191460.

Results are given in words; binding and its absence hold for the method and conditions named. In cells and extracts the contact can be indirect. A yes stands for co-enrichment or nearness to the bait. Other partners may have been found.

This assay deals with SFB-DDX11 (from pIRES2-SFB-DDX11) (human) (UniProt Q96FC9). Nature of the assay: affinity purification with mass spectrometry; tandem affinity purification of SFB-DDX11 from transfected NOZ cells (72 h), NETN lysis buffer; Flag M2 beads, elution with Flag peptide, then S protein agarose; SDS-PAGE, silver stain, bands excised for LC-MS/MS; SFB-vector as control.

B1: RAD51B (endogenous) (protein, UniProt O15315 1-384)
chain: MGSKKLKRVGLSQELCDRLSRHQILTCQDFLCLSPLELMKVTGLSYRGVHELLCMVSRACAPKMQTAYGIKAQRSADFSPAFLSTTLSALDEALHGGVACGSLTEITGPPGCGKTQFCIMMSILATLPTNMGGLEGAVVYIDTESAFSAERLVEIAESRFPRYFNTEEKLLLTSSKVHLYRELTCDEVLQRIESLEEEIISKGIKLVILDSVASVVRKEFDAQLQGNLKERNKFLAREASSLKYLAEEFSIPVILTNQITTHLSGALASQADLVSPADDLSLSEGTSGSSCVIAALGNTWSHSVNTRLILQYLDSERRQILIAKSPLAPFTSFVYTIKEEGLVLQETTFCSVTQAELNWAPEILPPQPPEQLGLQMCHHTQLIF
With B1, the binding result is on record as “binds”.
